Results deposited as PubChem BioAssay AID1259254 (NCATS, 2017)
Test: 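Genome-wide screen for genes that prevent DNA re-replication in cancer cells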 (primary screen). Cell system: human HCT116 colorectal cancer cells. Reagents: single siRNA against human genes. Timing: 3 days. Measured: 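Nuclei stained with Hoechst and imaged; cell-cycle phase assigned by DNA content; G2 share scaled per plate, non-targeting siRNA 0%, GMNN siRNA 100%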. Direction: G2 robust z-score: higher = more G2 cells, more excess DNA replication. Rule for the call: 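An siRNA counts as active if its G2 robust z-score lies at least 5 MADs above the screen median; here such calls match roughly 38% of GMNN control or more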.
Here is one part, drawn at random, of about 59,000 reagents. Over the whole deposit, about 1,550 (2.6%) are marked active. 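G2 share is only a proxy for re-replication; each gene was hit by three separate siRNAs, and active genes were retested.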 The numbers tell different reagents against one gene apart. Not all columns of the deposit are shown. Not given: the amount of reagent.

G2 robust z-score, by gene and reagent
TENM3: #1 0.262 inactive; #2 -0.348 inactive; #3 3.82 inactive
ZNF888: #1 -0.917 inactive; #2 0.0303 inactive; #3 -0.0435 inactive
MED12: #1 1.29 inactive; #2 -1.05 inactive; #3 -1.46 inactive
MUC5AC: #1 6.88 active; #2 -1.03 inactive; #3 0.385 inactive
CHEK1: #1 0.0454 inactive; #2 0.614 inactive; #3 -1.01 inactive
RAB23: #1 -0.373 inactive; #2 1.15 inactive; #3 -0.93 inactive
TBXAS1: #1 0.248 inactive; #2 -1.01 inactive; #3 0.0155 inactive
SSX6P: #1 1.21 inactive; #2 -1.2 inactive; #3 -0.306 inactive
HCFC1R1: #1 -0.341 inactive; #2 2.7 inactive; #3 -0.785 inactive
HHATL: #1 -0.694 inactive; #2 -1.36 inactive; #3 0.042 inactive
DGUOK: #1 2.92 inactive; #2 -0.635 inactive; #3 0.12 inactive
CRX: #1 -0.641 inactive; #2 2.4 inactive; #3 1.3 inactive
LINC00922: #1 -0.158 inactive; #2 -0.709 inactive; #3 2.43 inactive
RUBCN: #1 -0.602 inactive; #2 1.14 inactive; #3 3.25 inactive
JUNB: #1 -0.695 inactive; #2 -0.62 inactive; #3 4.37 inactive
PCIF1: #1 -0.669 inactive; #2 1.71 inactive; #3 0.148 inactive

No new results follow: 6 of the entries above.
G2 robust z-score, by gene and reagent
SSX6P: #1 1.21 inactive; #2 -1.2 inactive; #3 -0.306 inactive
HCFC1R1: #1 -0.341 inactive; #2 2.7 inactive; #3 -0.785 inactive
